Measurements reported in US8907107B2 (Hae Therapeutics Limited, priority 2009, dated 2014).
Some of these results come from one statement about several compounds together. For at least one compound, name, drawing or mass did not settle the structure.

Experiment: Stability in PBS/BSA solution exposed to ambient light
Type: physicochemical
Conditions: PBS containing 4×10^−4 M BSA, after 24 hours

CC[N+](C)(CC)Cc1ccc(C2=CC(c3ccc(OC)cc3)=[N+]3C2=Nc2c(-c4ccc(C[N+](C)(CC)CC)cc4)cc(-c4ccc(OC)cc4)n2[B-]3(F)F)cc1.[I-].[I-] [Compound 21]
variance in absorbance and fluoresence intensity: less than 10%
